Results as given in patent publication US12303590B2, “Method of treating osteoarthritis” (ORTHOTROPHIX, INC., priority 2018, dated 2025).
“Also recorded” adds a separate entry of the source. Part of at least one peptide drawing is inferred or uncertain, most often the ends. Peptide text beside a SMILES is read from it.

What was measured:
[1] = test system: subjects with bilateral patello-femoral knee osteoarthritis; assay: Randomized double-blind placebo-controlled study of TPX-100 in patients with osteoarthritis of the knees (Example 1); format: in vivo, human; conditions: for Pain frequency in responders: baseline to 12 months
Description: A multicenter, randomized double-blind, placebo-controlled study was designed to investigate the safety, tolerability, pharmacokinetics, and efficacy of TPX-100 administered in four weekly doses in subjects with bilateral patello-femoral knee osteoarthritis. The study was conducted under an open IND (investigational new drug application) at CDER (Center for Drug Evaluation and Research) of the U.S. FDA (The United States Food and Drug Administration) in compliance with GCP (Good Clinical Practice) and ICH (International Conference on Harmonization of Technical Requirements for Registration of Pharmaceuticals for Human Use) guidelines. Eighteen (18) orthopedic, rheumatologic and family practice centers in the U.S. participated in the study.
The study was divided into Part A and Part B. The Part A was designed to evaluate safety of intra-articular (I.A.) administration of TPX-100 at different dosing levels (20, 50, 100, or 200 mg per injection in sequential cohorts) in the subjects with osteoarthritis of the knees and to select a dose for Part B. Part B was to evaluate safety and efficacy of the selected dose of TPX-100.
Subjects in Part A were enrolled in sequential cohorts and randomized to receive 20, 50, 100 or 200 mg of TPX-100 in one knee (Index Knee) and identical placebo in the contralateral (Control) knee. Subjects, sites and sponsor and central MRI readers were blinded as to treatment assignment. A Safety Review Committee (SRC) evaluated safety in each dosing cohort. The SRC assessed safety and determined whether the next higher dosing regimen could be enrolled. All dosing cohorts in Part A were completed and analyzed with regard to safety prior to dose selection and initiation of Part B.
Part A included four (4) intra-articular (I.A.) injections, one per week, in sequential dosing cohorts of 20, 50, 100 and 200 mg TPX-100 versus placebo. Six (6) subjects were enrolled in 20, 50, and 100 mg cohorts, respectively, and nine (9) subjects were enrolled in the 200 mg cohort.
The 200 mg dose was selected for Part B based on safety review and the approval of the SRC. […] Per the Statistical Analysis Plan, these subjects were combined with the nine subjects in the 200 mg cohort of Part A for the efficacy analysis. In total, data from 93 subjects was analyzed for drug efficacy, each of whom received 4 once-weekly injections of TPX-100, 200 mg/dose, in the Index knee and identical placebo in the contralateral knee, as randomly assigned.
In both Part A and Part B, subjects received 4, once-weekly doses of active drug in the knee randomized to active drug in the Index knee and placebo in the contralateral (Control) knee, delivered by the intra-articular route. No other doses of drug or placebo were administered. All subjects visited their respective clinical sites at 3, 6, and 12 months after the first dosing for their safety and efficacy assessments.
If all clinical inclusion and exclusion criteria were met, MRIs of both knees were obtained and evaluated by a central reader to determine the ICRS grade (gICRS) of each knee as the final screening criterion. If the cartilage of patello-femoral compartment in both knees fell within ICRS grades 1-3, or 4 with only small focal defects no greater than 1 cm, the subject was registered. The randomization center randomized each subject to either “Right knee active” or “Left knee active”. The active knee was to receive TPX-100 and the contralateral knee was to receive identical placebo.
For enrolled subjects, there was within-subject randomization, such that one knee received active drug injections, and the contralateral knee received identical placebo injections. As two knees within a person form a matched set, the effects of individual-level confounders (e.g. level of activity, genetic and epigenetic factors, pain threshold) are eliminated, increasing the power of the study to detect a treatment effect if one is present. […]

long bone fracture = conditions: subcutaneous injection; Lazarov 2004; cited from earlier work
[2] = Month 6, Femoral Condyle Cartilage, Index Knees, N 85
[3] = Month 6, Lateral TF Cartilage, Index Knees, N 84
[4] = Month 6, Lateral TF, Index Knees, N 67
[5] = Month 6, Medial TF Cartilage, Index Knees, N 85
[6] = Month 6, Medial TF, Index Knees, N 68
[7] = Month 12, Entire TF Cartilage, Index Knees, N 85
[8] = Month 12, Entire TF, Index Knees, N 66
[9] = Month 12, Femoral Condyle Cartilage, Index Knees, N 85
[10] = Month 12, Lateral TF Cartilage, Index Knees, N 84
[11] = Month 12, Lateral TF, Index Knees, N 66
[12] = Month 12, Medial TF Cartilage, Index Knees, N 85
[13] = Month 12, Medial TF, Index Knees, N 67
[14] = Month 12, Pain Frequency, Index Knees, n 85

CC[C@H](C)[C@H](NC(=O)[C@H](CC(=O)O)NC(=O)[C@H](CC(N)=O)NC(=O)[C@H](CC(=O)O)NC(=O)CNC(=O)[C@H](CCCNC(=N)N)NC(=O)[C@H](CCC(=O)O)NC(=O)[C@H](CCC(N)=O)NC(=O)[C@H](CC(C)C)NC(=O)[C@H](CC(=O)O)NC(=O)[C@@H](N)[C@@H](C)O)C(=O)N[C@@H](CO)C(=O)N1CCC[C@H]1C(=O)N[C@@H](Cc1ccccc1)C(=O)N[C@@H](CO)C(=O)NCC(=O)N[C@@H](CC(=O)O)C(=O)NCC(=O)N[C@@H](CCC(N)=O)C(=O)N1CCC[C@H]1C(=O)N[C@@H](Cc1ccccc1)C(=O)N[C@@H](CCCCN)C(=O)N[C@@H](CC(=O)O)C(N)=O [TPX-100] (H-TDLQERGDNDISPFSGDGQPFKD-NH2; N-terminus assumed)
Spearman Correlation, Tibiofemoral Cartilage Thickening/Stabilization vs. Knee Function Measured by KOOS ADL ([1]; Month 6, Entire TF, Index Knees, N 67): 0.110
Pearson Correlation, Reduction of Pathological Femur 3D Bone Shape Change vs. TF Cartilage Thickening/Stabilization [1, 2]: 0.187
Spearman Correlation, Reduction of Pathological Femur 3D Bone Shape Change vs. TF Cartilage Thickening/Stabilization [1, 2]: 0.201
Pearson Correlation, Reduction of Pathological Femur 3D Bone Shape Change vs. TF Cartilage Thickening/Stabilization [1, 3]: 0.109
Spearman Correlation, Reduction of Pathological Femur 3D Bone Shape Change vs. TF Cartilage Thickening/Stabilization [1, 3]: 0.124
Pearson Correlation, Tibiofemoral Cartilage Thickening/Stabilization vs. Knee Function Measured by KOOS ADL [1, 4]: 0.132
Spearman Correlation, Tibiofemoral Cartilage Thickening/Stabilization vs. Knee Function Measured by KOOS ADL [1, 4]: 0.092
Pearson Correlation, Reduction of Pathological Femur 3D Bone Shape Change vs. TF Cartilage Thickening/Stabilization [1, 5]: 0.206
Spearman Correlation, Reduction of Pathological Femur 3D Bone Shape Change vs. TF Cartilage Thickening/Stabilization [1, 5]: 0.202
Pearson Correlation, Tibiofemoral Cartilage Thickening/Stabilization vs. Knee Function Measured by KOOS ADL [1, 6]: 0.074
Spearman Correlation, Tibiofemoral Cartilage Thickening/Stabilization vs. Knee Function Measured by KOOS ADL [1, 6]: 0.137
Pearson Correlation, Reduction of Pathological Femur 3D Bone Shape Change vs. TF Cartilage Thickening/Stabilization [1, 7]: 0.341
Spearman Correlation, Reduction of Pathological Femur 3D Bone Shape Change vs. TF Cartilage Thickening/Stabilization [1, 7]: 0.380
Pearson Correlation, Tibiofemoral Cartilage Thickening/Stabilization vs. Knee Function Measured by KOOS ADL [1, 8]: 0.332
Spearman Correlation, Tibiofemoral Cartilage Thickening/Stabilization vs. Knee Function Measured by KOOS ADL [1, 8]: 0.337
Pearson Correlation, Reduction of Pathological Femur 3D Bone Shape Change vs. TF Cartilage Thickening/Stabilization [1, 9]: 0.346
Spearman Correlation, Reduction of Pathological Femur 3D Bone Shape Change vs. TF Cartilage Thickening/Stabilization [1, 9]: 0.376
Pearson Correlation, Reduction of Pathological Femur 3D Bone Shape Change vs. TF Cartilage Thickening/Stabilization [1, 10]: 0.227
Spearman Correlation, Reduction of Pathological Femur 3D Bone Shape Change vs. TF Cartilage Thickening/Stabilization [1, 10]: 0.249
Pearson Correlation, Tibiofemoral Cartilage Thickening/Stabilization vs. Knee Function Measured by KOOS ADL [1, 11]: 0.359
Spearman Correlation, Tibiofemoral Cartilage Thickening/Stabilization vs. Knee Function Measured by KOOS ADL [1, 11]: 0.455
Pearson Correlation, Reduction of Pathological Femur 3D Bone Shape Change vs. TF Cartilage Thickening/Stabilization [1, 12]: 0.359
Spearman Correlation, Reduction of Pathological Femur 3D Bone Shape Change vs. TF Cartilage Thickening/Stabilization [1, 12]: 0.394
Pearson Correlation, Tibiofemoral Cartilage Thickening/Stabilization vs. Knee Function Measured by KOOS ADL [1, 13]: 0.242
Spearman Correlation, Tibiofemoral Cartilage Thickening/Stabilization vs. Knee Function Measured by KOOS ADL [1, 13]: 0.195
Pearson Correlation, Patella Periarticular Bone Shape Change vs. Pain [1, 14]: 0.319
Spearman Correlation, Patella Periarticular Bone Shape Change vs. Pain [1, 14]: 0.373
Pain frequency in responders [1]: decreased from daily pain at baseline to semi-monthly pain at 12 months
Pain frequency in responders ([1]; listed as peptide of SEQ ID No. 1): semi-weekly
Bone area change in lateral femur, lateral patella and medial patella of Index Knees ([1]; first 6 months): nearly zero
Mean bone shape change rate in Index Knees ([1]; first 6 months, femur): 0.03
3D periarticular bone shape changes in tibia and patella, Index Knees as compared to Control Knees ([1]; no statistically significant difference): slower changes
3D bone shape change of patella in the pain frequency responder group ([1]; through 12 months): remained approximately zero; also recorded: eventually no change
Bone fracture healing (long bone fracture): acceleration of bone fracture healing
